Data on one compound can be found in patent US20040110802A1, “Antibacterial benzoic acid derivatives” (priority 2002, published 2004).

Each structure is given as a SMILES string. In brackets after ≈: the same amount, converted by molar mass.

For the experiment, the system named is SAUR 9218. The experiment in a line: MIC Test Method, standard agar dilution. In kind it is cell-based. Particulars: Mueller Hinton agar, incubated overnight at 35° C., lowest concentration that inhibits visible growth. Here is the method:
The in vitro MiCs of test compounds were determined by a standard agar dilution method. A stock drug solution of each analog was prepared in the preferred solvent, usually DMSO:H2O (1:3). Serial 2-fold dilutions of each sample are made using 1.0 ml aliquots of sterile distil]ed water. To each 1.0 ml aliquot of drug was added 9 ml of molten Mueller Hinton agar medium. The drug-supplemented agar was mixed, poured into 15×100 mm petri dishes, and allowed to solidify and dry prior to inoculation.
Vials of each of the test organisms are maintained frozen in the vapor phase of a liquid nitrogen freezer. Test cultures are grown overnight at 35° C. on the medium appropriate for the organism. Colonies are harvested with a sterile swab, and cell suspensions are prepared in Trypticase Soy broth (TSB) to equal the turbidity of a 0.5 McFamland standard. A 1:20 dilution of each suspension was made in TSB. The plates containing the drug supplemented agar are inoculated with a 0.001 ml drop of the cell suspension using a Steers replicator, yielding approximately 10^4 to 10^5 cells per spot. The plates are incubated overnight at 35° C.
Following incubation the Minimum Inhibitory Concentration (MIC μg/ml), the lowest concentration of drug that inhibits visible growth of the organism, was read and recorded.

`N#Cc1ccc(NC(=O)c2noc3ccc(NCCO)cc23)c(C(=O)O)c1` returned an MIC of 1 µg/mL (≈ 2.73 µM).
